Test results from US7943651B2, “Compounds” (Glaxo Group Limited, priority 2006, dated 2011).
Some results were stated once for a whole list of compounds, not compound by compound.

Biological target: T1, glucocorticoid receptor (Homo sapiens, UniProt P04150)
T1 construct: a partially purified full length glucocorticoid receptor
T1 sequence (P04150 1-777): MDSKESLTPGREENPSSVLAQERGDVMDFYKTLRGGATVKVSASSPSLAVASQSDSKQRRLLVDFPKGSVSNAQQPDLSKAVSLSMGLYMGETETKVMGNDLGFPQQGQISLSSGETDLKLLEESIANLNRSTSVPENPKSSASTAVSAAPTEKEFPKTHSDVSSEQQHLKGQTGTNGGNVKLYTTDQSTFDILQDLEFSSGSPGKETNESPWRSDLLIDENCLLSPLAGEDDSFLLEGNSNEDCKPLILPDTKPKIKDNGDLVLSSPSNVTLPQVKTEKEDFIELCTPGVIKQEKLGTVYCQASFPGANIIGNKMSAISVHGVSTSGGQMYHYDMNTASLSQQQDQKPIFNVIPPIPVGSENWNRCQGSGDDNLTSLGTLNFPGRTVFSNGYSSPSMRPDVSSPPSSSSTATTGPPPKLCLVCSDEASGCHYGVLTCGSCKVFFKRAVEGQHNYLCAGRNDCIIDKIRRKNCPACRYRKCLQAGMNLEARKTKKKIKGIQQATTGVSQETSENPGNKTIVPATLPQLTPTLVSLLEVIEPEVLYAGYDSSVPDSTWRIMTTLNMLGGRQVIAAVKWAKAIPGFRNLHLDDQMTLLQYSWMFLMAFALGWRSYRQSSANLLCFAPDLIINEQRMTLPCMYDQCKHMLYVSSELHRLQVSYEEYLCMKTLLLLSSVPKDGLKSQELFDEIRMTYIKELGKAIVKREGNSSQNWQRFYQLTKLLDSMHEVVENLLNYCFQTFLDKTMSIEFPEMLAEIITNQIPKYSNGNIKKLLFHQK
Assay: Glucocorticoid Receptor Binding Assay
Conditions: competition with Alexa 555 fluorescently-labelled dexamethasone derivative; fluorescence polarisation; full length glucocorticoid receptor

| SMILES | glucocorticoid binding plC50 |
| --- | --- |
| COc1ccc(F)cc1C(C)(C)CC(O)(CNc1cc(C)cc2c1cnn2-c1cccc(C(=O)N[C@H](C)C(N)=O)c1)C(F)(F)F (mixture of isomers) [Example 3, N-[(1R)-2-Amino-1-methyl-2-oxoethyl]-3-(4-{[4-[5-fluoro-2-(methyloxy)phenyl]-2-hydroxy-4-methyl-2-(trifluoromethyl)pentyl]amino}-6-methyl-1H-indazol-1-yl)benzamide] | > 7 |
| COc1ccc(F)cc1C(C)(C)CC(O)(CNc1cc(C)cc2c1cnn2-c1cccc(C(=O)NCC(N)=O)c1)C(F)(F)F (racemic) [Example 1, N-(2-Amino-2-oxoethyl)-3-(4-{[4-[5-fluoro-2-(methyloxy)phenyl]-2-hydroxy-4-methyl-2-(trifluoromethyl)pentyl]amino}-6-methyl-1H-indazol-1-yl)benzamide] | > 7 |
| COc1ccc(F)cc1C(C)(C)CC(O)(CNc1cc(C)cc2c1cnn2-c1cccc(C(=O)N(C)CC(N)=O)c1)C(F)(F)F (racemic) [Example 2, N-(2-Amino-2-oxoethyl)-3-(4-{[4-[5-fluoro-2-(methyloxy)phenyl]-2-hydroxy-4-methyl-2-(trifluoromethyl)pentyl]amino}-6-methyl-1H-indazol-1-yl)-N-methylbenzamide] | > 7 |
| COc1ccc(F)cc1C(C)(C)CC(O)(CNc1cc(C)cc2c1cnn2-c1cccc(C(=O)NC(C)(C)C(N)=O)c1)C(F)(F)F (racemic) [Example 5, N-(2-Amino-1,1-dimethyl-2-oxoethyl)-3-(4-{[4-[5-fluoro-2-(methyloxy)phenyl]-2-hydroxy-4-methyl-2-(trifluoromethyl)pentyl]amino}-6-methyl-1H-indazol-1-yl)benzamide] | > 7 |
| COc1ccc(F)cc1C(C)(C)CC(O)(CNc1cc(C)cc2c1cnn2-c1cccc(C(=O)NCC(N)=O)c1)C(F)(F)F (single isomer, unassigned) [Example 1-A, N-(2-amino-2-oxoethyl)-3-(4-{[4-[5-fluoro-2-(methyloxy)phenyl]-2-hydroxy-4-methyl-2-(trifluoromethyl)pentyl]amino}-6-methyl-1H-indazol-1-yl)benzamide] | > 7 |
| COc1ccc(F)cc1C(C)(C)CC(O)(CNc1cc(C)cc2c1cnn2-c1cccc(C(=O)NCC(N)=O)c1)C(F)(F)F (single isomer, unassigned) [Example 1-B, N-(2-amino-2-oxoethyl)-3-(4-{[4-[5-fluoro-2-(methyloxy)phenyl]-2-hydroxy-4-methyl-2-(trifluoromethyl)pentyl]amino}-6-methyl-1H-indazol-1-yl)benzamide] | > 7 |
| COc1ccc(F)cc1C(C)(C)CC(O)(CNc1cc(C)cc2c1cnn2-c1cccc(C(=O)N(C)CC(N)=O)c1)C(F)(F)F (single isomer, unassigned) [Example 2-A, N-(2-amino-2-oxoethyl)-3-(4-{[4-[5-fluoro-2-(methyloxy)phenyl]-2-hydroxy-4-methyl-2-(trifluoromethyl)pentyl]amino}-6-methyl-1H-indazol-1-yl)-N-methylbenzamide] | > 7 |
| COc1ccc(F)cc1C(C)(C)CC(O)(CNc1cc(C)cc2c1cnn2-c1cccc(C(=O)N(C)CC(N)=O)c1)C(F)(F)F (single isomer, unassigned) [Example 2-B, N-(2-amino-2-oxoethyl)-3-(4-{[4-[5-fluoro-2-(methyloxy)phenyl]-2-hydroxy-4-methyl-2-(trifluoromethyl)pentyl]amino}-6-methyl-1H-indazol-1-yl)-N-methylbenzamide] | > 7 |
| COc1ccc(F)cc1C(C)(C)CC(O)(CNc1cc(C)cc2c1cnn2-c1cccc(C(=O)N[C@H](C)C(N)=O)c1)C(F)(F)F (single isomer, unassigned) [Example 3-A] | > 7 |
| COc1ccc(F)cc1C(C)(C)CC(O)(CNc1cc(C)cc2c1cnn2-c1cccc(C(=O)N[C@H](C)C(N)=O)c1)C(F)(F)F (single isomer, unassigned) [Example 3-B] | > 7 |
| COc1ccc(F)cc1C(C)(C)CC(O)(CNc1cc(C)cc2c1cnn2-c1cccc(C(=O)NC(C)(C)C(N)=O)c1)C(F)(F)F (single isomer, unassigned) [Example 5-A, N-(2-amino-1,1-dimethyl-2-oxoethyl)-3-(4-{[4-[5-fluoro-2-(methyloxy)phenyl]-2-hydroxy-4-methyl-2-(trifluoromethyl)pentyl]amino}-6-methyl-1H-indazol-1-yl)benzamide] | > 7 |
| COc1ccc(F)cc1C(C)(C)CC(O)(CNc1cc(C)cc2c1cnn2-c1cccc(C(=O)NC(C)(C)C(N)=O)c1)C(F)(F)F (single isomer, unassigned) [Example 5-B, N-(2-amino-1,1-dimethyl-2-oxoethyl)-3-(4-{[4-[5-fluoro-2-(methyloxy)phenyl]-2-hydroxy-4-methyl-2-(trifluoromethyl)pentyl]amino}-6-methyl-1H-indazol-1-yl)benzamide] | > 7 |
| COc1ccc(F)cc1C(C)(C)CC(O)(CNc1cc(C)cc2c1cnn2-c1cccc(C(=O)N[C@@H](C)C(N)=O)c1)C(F)(F)F (stereo partly drawn) [Example 4, N-[(1S)-2-Amino-1-methyl-2-oxoethyl]-3-(4-{[4-[5-fluoro-2-(methyloxy)phenyl]-2-hydroxy-4-methyl-2-(trifluoromethyl)pentyl]amino}-6-methyl-1H-indazol-1-yl)benzamide] | > 7 |
| COc1ccc(F)cc1C(C)(C)CC(O)(CNc1cc(C)cc2c1cnn2-c1cccc(C(=O)N[C@@H](CO)C(N)=O)c1)C(F)(F)F (stereo partly drawn) [Example 8, N-[(1S)-2-Amino-1-(hydroxymethyl)-2-oxoethyl]-3-(4-{[4-[5-fluoro-2-(methloxy)phenyl]-2-hydroxy-4-methyl-2-(trifluoromethyl)pentyl]amino}-6-methyl-1H-indazol-1-yl)benzamide] | > 7 |
| Cc1cc(NCC(O)(CC(C)(C)c2cc(F)ccc2O)C(F)(F)F)c2cnn(-c3cccc(C(=O)N(C)CC(N)=O)c3)c2c1 (stereo not drawn) [Example 9, N-(2-Amino-2-oxoethyl)-3-(4-{[4-(5-fluoro-2-hydroxyphenyl)-2-hydroxy-4-methyl-2-(trifluoromethyl)pentyl]amino}-6-methyl-1H-indazol-1-yl)-N-methylbenzamide] | > 7 |
| Cc1cc(NCC(O)(CC(C)(C)c2cc(F)ccc2O)C(F)(F)F)c2cnn(-c3cccc(C(=O)NCC(N)=O)c3)c2c1 (stereo not drawn) [Example 10, N-(2-Amino-2-oxoethyl)-3-(4-{[4-(5-fluoro-2-hydroxyphenyl)-2-hydroxy-4-methyl-2-(trifluoromethyl)pentyl]amino}-6-methyl-1H-indazol-1-yl)benzamide] | > 7 |
| Cc1cc(NCC(O)(CC(C)(C)c2cc(F)ccc2O)C(F)(F)F)c2cnn(-c3cccc(C(=O)N[C@H](C)C(N)=O)c3)c2c1 (stereo partly drawn) [Example 11, N-[(1R)-2-Amino-1-methyl-2-oxoethyl]-3-(4-{[4-(5-fluoro-2-hydroxyphenyl)-2-hydroxy-4-methyl-2-(trifluoromethyl)pentyl]amino}-6-methyl-1H-indazol-1-yl)benzamide] | > 7 |
| Cc1cc(NCC(O)(CC(C)(C)c2cc(F)ccc2O)C(F)(F)F)c2cnn(-c3cccc(C(=O)N4CCC[C@@H]4C(N)=O)c3)c2c1 (stereo partly drawn) [Example 12, 1-{[3-(4-{[4-(5-Fluoro-2-hydroxyphenyl)-2-hydroxy-4-methyl-2-(trifluoromethyl)pentyl]amino}-6-methyl-1H-indazol-1-yl)phenyl]carbonyl}-D-prolinamide] | > 7 |
| CNC(=O)CNC(=O)c1cccc(-n2ncc3c(NCC(O)(CC(C)(C)c4cc(F)ccc4OC)C(F)(F)F)cc(C)cc32)c1 (stereo not drawn) [Example 13, 3-(4-{[4-[5-Fluoro-2-(methyloxy)phenyl]-2-hydroxy-4-methyl-2-(trifluoromethyl)pentyl]amino}-6-methyl-1H-indazol-1-yl)-N-[2-(methylamino)-2-oxoethyl]benzamide] | > 7 |
| COc1ccc(F)cc1C(C)(C)CC(O)(CNc1cc(C)cc2c1cnn2-c1cccc(C(=O)N(C)[C@@H](C)C(N)=O)c1)C(F)(F)F (stereo partly drawn) [Example 14, N-[(1S)-2-Amino-1-methyl-2-oxoethyl]-3-(4-{[4-[5-fluoro-2-(methloxy)phenyl]-2-hydroxy-4-methyl-2-(trifluoromethyl)pentyl]amino}-6-methyl-1H-indazol-1-yl)-N-methylbenzamide] | > 7 |
| COc1ccc(F)cc1C(C)(C)CC(O)(CNc1cc(C)cc2c1cnn2-c1cccc(C(=O)N(C)[C@H](C)C(N)=O)c1)C(F)(F)F (stereo partly drawn) [Example 15, N-[(1R)-2-Amino-1-methyl-2-oxoethyl]-3-(4-{[4-[5-fluoro-2-(methloxy)phenyl]-2-hydroxy-4-methyl-2-(trifluoromethyl)-pentyl]amino}-6-methyl-1H-indazol-1-yl)-N-methylbenzamide] | > 7 |
